Source: article PMC9037475

Amino acid sequences for entries named in this document (tags omitted). A change or cut given only in a name is not applied to a line headed by its entry.
UniProt P01106: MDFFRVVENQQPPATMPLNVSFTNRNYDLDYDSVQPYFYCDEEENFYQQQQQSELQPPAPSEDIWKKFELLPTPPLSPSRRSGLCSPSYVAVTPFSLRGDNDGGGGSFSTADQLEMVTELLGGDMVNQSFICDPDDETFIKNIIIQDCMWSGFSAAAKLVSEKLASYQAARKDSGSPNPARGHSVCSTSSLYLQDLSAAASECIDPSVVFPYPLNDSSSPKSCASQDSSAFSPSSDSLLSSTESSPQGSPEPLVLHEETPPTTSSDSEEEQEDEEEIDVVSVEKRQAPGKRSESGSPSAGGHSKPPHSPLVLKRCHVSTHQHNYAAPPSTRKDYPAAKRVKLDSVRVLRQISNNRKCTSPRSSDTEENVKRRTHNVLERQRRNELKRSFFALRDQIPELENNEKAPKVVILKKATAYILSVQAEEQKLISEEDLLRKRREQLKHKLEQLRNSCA
UniProt Q969H0: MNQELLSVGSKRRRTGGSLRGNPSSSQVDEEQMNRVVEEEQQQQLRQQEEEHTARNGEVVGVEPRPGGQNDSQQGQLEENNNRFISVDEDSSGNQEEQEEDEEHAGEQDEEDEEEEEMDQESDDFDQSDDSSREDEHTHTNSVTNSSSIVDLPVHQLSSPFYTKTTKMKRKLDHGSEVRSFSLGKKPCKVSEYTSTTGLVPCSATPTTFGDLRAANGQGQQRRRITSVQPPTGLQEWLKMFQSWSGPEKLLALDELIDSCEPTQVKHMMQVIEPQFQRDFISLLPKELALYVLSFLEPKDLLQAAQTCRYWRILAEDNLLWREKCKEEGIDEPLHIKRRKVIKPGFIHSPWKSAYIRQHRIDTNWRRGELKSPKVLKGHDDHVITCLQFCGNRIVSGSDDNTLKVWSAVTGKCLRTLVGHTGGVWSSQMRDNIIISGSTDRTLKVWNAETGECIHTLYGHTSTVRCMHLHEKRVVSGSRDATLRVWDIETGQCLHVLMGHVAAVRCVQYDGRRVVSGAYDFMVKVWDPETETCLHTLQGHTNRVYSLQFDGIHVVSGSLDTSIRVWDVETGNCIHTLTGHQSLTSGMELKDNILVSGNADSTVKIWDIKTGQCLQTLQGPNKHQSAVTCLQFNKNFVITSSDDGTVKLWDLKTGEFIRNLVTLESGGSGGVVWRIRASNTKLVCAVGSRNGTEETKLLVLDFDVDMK

B1: Flag-Fbxl8 (F-box and Leucine Rich Repeat Protein 8), wild type, expressed in U2OS cells (protein, UniProt Q96CD0 1-374)
chain: MAEPGEGLPEEVLALIFRHLSLRDRAAAARVCRAWAAAATCSAVWHDTKISCECELEGMLPPYLSACLDHIHNLRLEFEPSRKPSRRAAIELLMVLAGRAPGLRGLRLECRGEKPLFDAGRDVLEAVHAVCGAASQLRHLDLRRLSFTLDDALVLQAARSCPELHSLFLDNSTLVGSVGPGSVLELLEACPRLRALGLHLASLSHAILEALAAPDRAPFALLALRCACPEDARASPLPNEAWVALRRRHPGLAVELELEPALPAESVTRVLQPAVPVAALRLNLSGDTVGPVRFAAHHYAATLCALEVRAAASAELNAALEELAARCAALREVHCFCVVSHSVLDAFRAHCPRLRTYTLKLTREPHPWRPTLVA

Tests used:
Assay in all cases: co-IP; U2OS cells transfected with Flag-Fbxl8 or Flag-Fbxw7 along with V5-c-myc or phosphomutants, MG132 (20 μM) for 6 hours; precipitated with anti-V5 beads; western blot
[1] = target: V5 tagged wild-type c-myc (pD40-His/V5-c-Myc WT) (UniProt P01106)
[2] = target: V5 tagged c-myc-S62A (pD40-His/V5-c-MycS62A)
[3] = target: V5 tagged c-myc-T58A (pD40-His/V5-c-MycT58A)

Molecule	binding [1]	binding [2]	binding [3]
Flag-Fbxw7 (from UniProt Q969H0 1-707)	binds	–	–
B1	binds	binds	binds

No constants are given. Whether binding was seen depends on the method and setting. In cells and extracts the contact can be indirect. A result given as binding can be weak or reduced; the word gives no strength. Where a sequence is shown, tags or fusion partners need not be part of it.
